## Screening data, single-dose tests

The values are deposited in ChEMBL (CHEMBL3988442, “University of Dundee, Small-Polar-MMV Screening Library” (2021)).

Mtb cholesterol medium: 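Growth of Mycobacterium tuberculosis over 4 days (cholesterol / DPPC medium with tyloxapol); the read-out is not stated. Compounds at 50 µM. Higher reads as more growth inhibition (inferred: compounds with an IC50 in retests scored well above the rest). Of about 69,000 compounds tested this way, about 370 (0.54%) reached 50% or more in at least one test.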
Mtb glucose medium: 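Phenotypic screen: M. tuberculosis growth, glucose 7H9 medium, 3 days; the read-out is not stated. Concentration: 50 µM. Direction is inferred from retests: higher values go with more growth inhibition. About 69,000 compounds were tested under these conditions; 1.1% (about 760) showed 50% or more at least once.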

The filed quantity is “Percent Effect” (%). How 0% and 100% were set is not recorded. Most values in the screen are low, and negative values occur. Compounds were drawn at random from those tested, without regard to their results. Two or more numbers in one place are separate tests of the same structure; such repeats can differ widely.

| # | SMILES | Mtb cholesterol medium | Mtb glucose medium |
|---|---|---|---|
| 1 | `O=C(c1ccc(Cl)cc1)N1CCC2(C1)C(=O)Nc1ccccc12` (centres unmarked) | -4.967% | 9.783% |
| 2 | `CC(C)NC(=O)NCc1ccnc(N(C)C)n1` | 18.46% | 19.28% |
| 3 | `CC1CCC(NS(=O)(=O)CC(=O)Nc2ccccc2N2CCCC2)CC1` (centres unmarked) | 7.06% | 42.31% |
| 4 | `Cc1noc(C(C)N2CCc3[nH]c4ccc(Cl)cc4c3C2)n1` (centres unmarked) | 16.47% | 48.66% |
| 5 | `Cc1noc(C)c1CS(=O)(=O)CC(=O)N(C)Cc1cccc(F)c1` | 6.552% | -2.509% and 4.695% |
| 6 | `CC(C)c1nnc2n1CCN(C(=O)CN1CCc3sccc3C1)C2` | -1.356% | 11.09% |
| 7 | `OC(CN(Cc1ccccc1)Cc1ccon1)c1cccs1` (centres unmarked) | 6.183% | 16.85% |
| 8 | `CCOCCOC(C)C(=O)Nc1ccnn1-c1ccccc1C` (centres unmarked) | -9.951% | -12.76% and 1.476% |
| 9 | `CN1CCCCC12CCN(c1nncs1)C2` (centres unmarked) | 22.52% and -8.13% | -4.843% and -17.2% |
| 10 | `CCCc1nc(C)c(C(=O)NCCn2ccnc2)s1` | -12.98% | 10.06% |
| 11 | `c1ccc2oc(CN3CCCC3Cn3cncn3)nc2c1` (centres unmarked) | -12.53% | -3.942% and 0.3768% |
| 12 | `CCC[C@@H]1CN(Cc2ccccc2OC(F)(F)F)C[C@H]1NC(C)=O` | -2.939% | -28.22% |
| 13 | `O=C(NCCN1CCC(c2cccs2)CC1)Nc1cccs1` | 0.01469% | 9.068% and 12.48% |
| 14 | `CC(C)Cn1ncc(C(=O)NS(=O)(=O)c2ccccc2)c1C1CC1` | -6.765% | 5.797% |
| 15 | `CN(Cc1cc(Br)cn1C)C(=O)c1cccnc1` | 10.99% | 5.953% and 3.431% |
| 16 | `O=C(O)C(F)(F)F.c1cc(CN2CCc3c(nnn3CC3CC3)C2COCC2CC2)co1` (centres unmarked) | 3.921% | 8.177% |
| 17 | `C(=C\c1ccc(CN2CCCC2)cn1)/c1ccccc1` | 27.13% | 31.69% |
| 18 | `CCc1ccc(CN2CCC3(CC2)CNC(=O)CO3)o1.O=C(O)C(F)(F)F` | -4.298% and 0.3019% | 13.3% |
| 19 | `COCCN(Cc1ccc(F)cc1Cl)C(=O)c1cc(C)no1` | 11.65% | 2.427% and 15.72% |
| 20 | `Cc1noc(C)c1C(=O)NCC(c1cccc(F)c1)N(C)C` (centres unmarked) | 7.129% | -8.21% |
| 21 | `Cc1nn(CC(=O)N2CCN(c3ccncc3)CC2)c(C)c1Cl` | -11.04% | -4.162% and 14.22% |
| 22 | `O=C(N[C@H]1CC[C@H](O)CC1)c1ccc2nc(-c3ccc(F)cc3)cn2c1` | 0.2703% | 7.272% and -0.724% |
| 23 | `CCC(C(=O)N(C)CCC1=CCN(C)CC1)c1ccccc1` (centres unmarked) | -10.34% | 11.22% |
| 24 | `O=C(O)C(F)(F)F.O=C(O)C(F)(F)F.[H][C@@]12C[C@@H](Oc3cccc(F)c3)CN1CCN(C(=O)c1ccncc1)C2` | 23.6% | -11.65% and -0.3525% |
| 25 | `NC(=O)CN(CC(=O)NCc1cccc(Cl)c1)C1CCCC1` | -11% | -7.98% |
| 26 | `CCc1noc(C)c1-c1nc(Cc2cccs2)nn1C1CCN(C)CC1` | 11.5% | -0.6525% and 11.74% |
| 27 | `Cc1cc(Cn2cc(C(C)Cc3ccc4c(c3)OCO4)nn2)n[nH]1` (centres unmarked) | -7.854% | 6.962% |
| 28 | `O=C(O)C(F)(F)F.O=C(O)C(F)(F)F.[H][C@]12CCN(Cc3cccs3)[C@@]1([H])C[C@H](C(=O)N1CCN(C)CC1)O2` | -12.71% | -19.59% |
| 29 | `CCN(C(=O)C(C)C)C(c1cccnc1)c1ccc2c(c1)CCO2` (centres unmarked) | -21.11% and -9.34% | -30.17% |
| 30 | `NCc1cnn(-c2ccccc2C(=O)NCc2ccccn2)c1` | -14.48% | -5.643% |
| 31 | `NC(=O)CN1CCCN(C(=O)c2ccn(-c3ccccc3)n2)CC1` | -1.807% | -3.872% and -2.758% |
| 32 | `CCn1ccnc1S(=O)(=O)Cc1c(C)cc(C)c(C(C)=O)c1C` | -10.35% | 5.227% and 7.91% |
| 33 | `Cc1ccc(CN(CCCN2CCOCC2)Cc2[nH]cnc2C)o1.O=C(O)CC(O)(CC(=O)O)C(=O)O` | -2.66% | -4.131% |
| 34 | `COc1cccc2c1OCC(CNC(=O)CCCN1CCOCC1)C2` (centres unmarked) | -13.7% | -7.36% |
| 35 | `Cc1ccccc1CSc1ncc(Br)c(C(=O)O)n1` | 9.156% | 1.178% |
| 36 | `CC(C)c1noc(C2CCCN2C(=O)CN2CCc3ccccc32)n1` (centres unmarked) | -7.378% | -13.75% and -1.878% |
| 37 | `Cn1ccnc1CN1CCC2(COCCN(S(=O)(=O)C3CC3)C2)C1` (centres unmarked) | -8.292% | 8.575% |
| 38 | `CCCN(Cc1nccn1C)C(=O)c1cnn[nH]1` | 4.613% | -11.35% and -2.092% |
| 39 | `O=C(CCc1cc2n(n1)CCCN(CCc1ccccc1)C2)NC1CC1` | -11.91% | 8.525% |
| 40 | `CCc1nc(CN2CCN(C(=O)CCc3ccccc3)CC2)cs1` | -1.734% | 38.58% |
| 41 | `[H][C@@]12CN(Cc3cccc(C)n3)C[C@]1([H])N(Cc1ccccc1OC)C(=O)O2` | -12.14% and -9.248% | -0.5616% |
| 42 | `O=C(NCc1cccnc1)N1CCC2(CC(=O)N(c3ccsc3)C2)C1.O=C(O)C(F)(F)F` (centres unmarked) | -10.77% and -4.795% | -17.37% |
| 43 | `Cc1cc(C)n(-c2ccc(CNCc3ccc(F)cc3F)cn2)n1` | 16.66% | 8.614% |
| 44 | `O=C(NCC1CCOC1)c1csc(-c2ccco2)n1` (centres unmarked) | -28.64% | -11.48% |
| 45 | `Cc1cc(CNCC2CCCN(C(=O)OC(C)(C)C)C2)no1` (centres unmarked) | -7.373% | -3.433% |
| 46 | `CCOCCn1nc(C)cc1C(=O)N1CCC2(CC1)[C@H](O)C[C@@H]2OCC` | -1.948% and -10.57% | -23.41% |
| 47 | `COc1ccc(C(C)NCCC(N)=O)cc1F` (centres unmarked) | -5.91% | -6.949% |
| 48 | `N#CCC1CC(c2ccc(F)cc2)=NO1` (centres unmarked) | 12.16% | 26.72% |
| 49 | `CC(NCc1cccs1)c1ccc(OCc2nccn2C)cc1` (centres unmarked) | -7.274% | 0.005064% |
| 50 | `c1cnc(Nc2cncc(C3CCCN(c4ncccn4)C3)n2)nc1` (centres unmarked) | 29.03% | 40.93% |
| 51 | `O=C(O)C(F)(F)F.O=C(O)C(F)(F)F.[H][C@@]12COC[C@@H](CC(=O)NCC3CC3)[C@]1([H])CN(Cc1cccnc1)C2` | 2.688% | 2.495% |
| 52 | `CCCn1cnnc1-c1nc2c([nH]1)CC(c1ccc(Cl)cc1)CNC2=O` (centres unmarked) | 61.66% | 48.28% |
| 53 | `CCN(CC)C1CCN(C(=O)NCc2cccc(-n3cccn3)c2)C1` (centres unmarked) | 8.242% | 25.93% |
| 54 | `Cc1nccn1C1CCCN(C(=O)CCNc2ncccn2)C1` (centres unmarked) | -7.445% | -12.39% |
| 55 | `Cc1cc(C(=O)N2CCCC(n3ccnc3C)C2)c(C)s1` (centres unmarked) | 12.93% | 22.69% and 0.0179% |
| 56 | `COc1ccc(C)cc1NC(=O)c1coc(C)n1` | 0.5561% | -16.09% |
| 57 | `Cc1nc(-c2ccccc2)c(C(=O)N2CCC3(CC(=O)NC3=O)C2)s1` (centres unmarked) | -16.17% | -4.84% |
| 58 | `[H][C@@]12CCN(Cc3ccccc3)C[C@]1([H])CCN(c1ccccc1)C(=O)C2` | -6.2% | -29.95% and -9.566% |
| 59 | `Cc1ccc(CN2CCCC3(CCN(Cc4ccc(C)o4)C3)C2)o1` (centres unmarked) | -2.686% and -9.335% | -20.63% |
| 60 | `Cc1ncc2c(n1)CN(Cc1nnc(-c3occc3C)o1)CC2` | -0.828% | 37.91% |
| 61 | `O=C(O)C(F)(F)F.[H][C@@]12CN(CC3CC3)C[C@]1([H])C(=O)N(Cc1cccc(F)c1)C2` | 8.846% | -4.202% |
| 62 | `CNc1cncc(C2CCCN2C(=O)CCn2ccnc2)n1` (centres unmarked) | -0.2612% and -3.157% | -14.8% |
| 63 | `CCC[C@H]1CN(S(C)(=O)=O)C[C@@H]1NC(=O)Cc1ccc(F)cc1C` | 4.08% | -15.46% |
| 64 | `CC(CNCc1ccncc1)Oc1ccccn1.Cl` (centres unmarked) | -6.924% | -24.51% |
| 65 | `[H][C@]12CC[C@]([H])(CN(c3ncccn3)C1)N(C(=O)Cn1ccc(=O)cc1)C2` | 1.729% and 6.251% | 3.876% |
| 66 | `Cc1csc(C(=O)N2CC[C@H](Oc3cccnc3C)[C@@H](O)CC2)c1` | 16.39% | 8.487% |
| 67 | `CC1=C(C(=O)N2CCCC(Cn3cc(CO)nn3)C2)OCCO1` (centres unmarked) | 9.993% | 14.13% |
| 68 | `Cc1nn(C)c2nc(N(Cc3ccccn3)CC3CCCO3)sc12` (centres unmarked) | 3.233% | -12.59% |
| 69 | `CN(C)c1cc(C(=O)NCCc2nnc(-c3ccco3)[nH]2)ccn1` | -2.85% | 6.329% and -7.037% |
| 70 | `O=C(O)C(F)(F)F.[H][C@@]12CCN(c3ncccn3)C[C@]1([H])[C@H](C(=O)N(C)C)CCO2` | -8.364% | -3.86% and -3.03% |
| 71 | `CCCOC(=O)c1ccc(-c2ccc(/C=C3\C(=O)NC(=N)N3C)o2)cc1` | -10.05% | -9.864% |
| 72 | `CC1CCN(S(=O)(=O)c2cccn(CC(=O)N3CCOCC3)c2=O)CC1` | -19.9% | -16.64% |
| 73 | `Cc1ccc(CNC(=O)NCc2cccnc2N(C)C)s1` | -9.933% | -12.25% |